We go through two molecules from PMC6965139, “Crystal structures of fukutin-related protein (FKRP), a ribitol-phosphate transferase related to muscular dystrophy” (Nature Communications, 2020).

In experiment [1] the target is secreted type of FKRP, wild type (sFKRP, Asn33 to the C-terminus, His/Myc) (human) (UniProt Q9H9S5). Nature of the experiment: SEC; culture medium of transfected HEK293T applied to Superdex 200 increase 5/150; fractions analysed by Western blotting with c-Myc antibody.
Experiment [2] deals with T1, soluble form of fukutin-related protein (sFKRP, residues 45 to C-terminus) (human) (UniProt Q9H9S5).
T1 sequence: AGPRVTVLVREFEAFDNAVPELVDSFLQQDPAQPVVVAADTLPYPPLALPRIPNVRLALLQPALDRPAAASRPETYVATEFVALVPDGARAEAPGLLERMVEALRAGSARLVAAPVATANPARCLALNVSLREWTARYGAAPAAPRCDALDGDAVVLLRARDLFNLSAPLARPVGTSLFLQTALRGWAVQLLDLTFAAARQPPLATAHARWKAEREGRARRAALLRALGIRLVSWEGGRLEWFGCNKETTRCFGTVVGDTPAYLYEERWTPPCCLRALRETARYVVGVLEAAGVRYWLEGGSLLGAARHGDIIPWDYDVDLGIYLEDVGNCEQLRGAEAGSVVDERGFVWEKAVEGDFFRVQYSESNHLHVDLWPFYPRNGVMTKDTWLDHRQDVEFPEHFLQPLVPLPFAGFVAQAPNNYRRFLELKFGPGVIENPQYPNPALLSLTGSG
Nature of the experiment: crystal structure; crystals of the Ba2+-bound form of sFKRP soaked with 10 mM acceptor peptide (and CDP-Rbo), 2 h at 293 K; 2.47 Å; both purified.

No constants are given. Whether binding was seen depends on the method and setting. Some results given as binding are weak or reduced against the parent protein; the word gives no strength. For some assays here: Sequences can lack the tags named with a protein.

B1: secreted type of FKRP, wild type (sFKRP, Asn33 to the C-terminus, His/Myc) (enzyme, UniProt Q9H9S5 33-495)
chain: NSRARGPRRASAAGPRVTVLVREFEAFDNAVPELVDSFLQQDPAQPVVVAADTLPYPPLALPRIPNVRLALLQPALDRPAAASRPETYVATEFVALVPDGARAEAPGLLERMVEALRAGSARLVAAPVATANPARCLALNVSLREWTARYGAAPAAPRCDALDGDAVVLLRARDLFNLSAPLARPVGTSLFLQTALRGWAVQLLDLTFAAARQPPLATAHARWKAEREGRARRAALLRALGIRLVSWEGGRLEWFGCNKETTRCFGTVVGDTPAYLYEERWTPPCCLRALRETARYVVGVLEAAGVRYWLEGGSLLGAARHGDIIPWDYDVDLGIYLEDVGNCEQLRGAEAGSVVDERGFVWEKAVEGDFFRVQYSESNHLHVDLWPFYPRNGVMTKDTWLDHRQDVEFPEHFLQPLVPLPFAGFVAQAPNNYRRFLELKFGPGVIENPQYPNPALLSLTGSG
For the molecule B1, the binding entry in experiment [1] is reported as “binds”.
Regarding ATPAPVAAIGPK (Thr2 O-linked RboP-3GalNAcβ1-3GlcNAcβ1-4(phospho-6)Manα1-) [RboP-(phospho-)core M3 peptide [AT(RboP-3GalNAcβ1-3GlcNAcβ1-4(phospho-6)Manα1-)…]], the binding result in experiment [2] is “binds weakly”.
